Patent publication US20130102624A1 (priority 2011, published 2013)

Experiment: urinary excretion of thiamine metabolites TMA and PMA and TMA/PMA ratio (LC-MS/MS of urine)

Cc1ncsc1CCO [TMA]
Increase in the ratio of TMA/PMA (early stages of thiamine deficiency (FIG. 4)): > 150 fold
Ratio of TMA to PMA (TMA/PMA) in urine (human, following consumption of sucrose, before being affected by consumption of thiamine): about 150
Increase in the ratio of the thiazole and pyrimidine metabolites (urine, when empty calories are consumed): more than 100 fold
